Consider four substances from article PMC4182762.

Amino acid sequences for entries named in this document (tags omitted).
UniProt Q3TKT4: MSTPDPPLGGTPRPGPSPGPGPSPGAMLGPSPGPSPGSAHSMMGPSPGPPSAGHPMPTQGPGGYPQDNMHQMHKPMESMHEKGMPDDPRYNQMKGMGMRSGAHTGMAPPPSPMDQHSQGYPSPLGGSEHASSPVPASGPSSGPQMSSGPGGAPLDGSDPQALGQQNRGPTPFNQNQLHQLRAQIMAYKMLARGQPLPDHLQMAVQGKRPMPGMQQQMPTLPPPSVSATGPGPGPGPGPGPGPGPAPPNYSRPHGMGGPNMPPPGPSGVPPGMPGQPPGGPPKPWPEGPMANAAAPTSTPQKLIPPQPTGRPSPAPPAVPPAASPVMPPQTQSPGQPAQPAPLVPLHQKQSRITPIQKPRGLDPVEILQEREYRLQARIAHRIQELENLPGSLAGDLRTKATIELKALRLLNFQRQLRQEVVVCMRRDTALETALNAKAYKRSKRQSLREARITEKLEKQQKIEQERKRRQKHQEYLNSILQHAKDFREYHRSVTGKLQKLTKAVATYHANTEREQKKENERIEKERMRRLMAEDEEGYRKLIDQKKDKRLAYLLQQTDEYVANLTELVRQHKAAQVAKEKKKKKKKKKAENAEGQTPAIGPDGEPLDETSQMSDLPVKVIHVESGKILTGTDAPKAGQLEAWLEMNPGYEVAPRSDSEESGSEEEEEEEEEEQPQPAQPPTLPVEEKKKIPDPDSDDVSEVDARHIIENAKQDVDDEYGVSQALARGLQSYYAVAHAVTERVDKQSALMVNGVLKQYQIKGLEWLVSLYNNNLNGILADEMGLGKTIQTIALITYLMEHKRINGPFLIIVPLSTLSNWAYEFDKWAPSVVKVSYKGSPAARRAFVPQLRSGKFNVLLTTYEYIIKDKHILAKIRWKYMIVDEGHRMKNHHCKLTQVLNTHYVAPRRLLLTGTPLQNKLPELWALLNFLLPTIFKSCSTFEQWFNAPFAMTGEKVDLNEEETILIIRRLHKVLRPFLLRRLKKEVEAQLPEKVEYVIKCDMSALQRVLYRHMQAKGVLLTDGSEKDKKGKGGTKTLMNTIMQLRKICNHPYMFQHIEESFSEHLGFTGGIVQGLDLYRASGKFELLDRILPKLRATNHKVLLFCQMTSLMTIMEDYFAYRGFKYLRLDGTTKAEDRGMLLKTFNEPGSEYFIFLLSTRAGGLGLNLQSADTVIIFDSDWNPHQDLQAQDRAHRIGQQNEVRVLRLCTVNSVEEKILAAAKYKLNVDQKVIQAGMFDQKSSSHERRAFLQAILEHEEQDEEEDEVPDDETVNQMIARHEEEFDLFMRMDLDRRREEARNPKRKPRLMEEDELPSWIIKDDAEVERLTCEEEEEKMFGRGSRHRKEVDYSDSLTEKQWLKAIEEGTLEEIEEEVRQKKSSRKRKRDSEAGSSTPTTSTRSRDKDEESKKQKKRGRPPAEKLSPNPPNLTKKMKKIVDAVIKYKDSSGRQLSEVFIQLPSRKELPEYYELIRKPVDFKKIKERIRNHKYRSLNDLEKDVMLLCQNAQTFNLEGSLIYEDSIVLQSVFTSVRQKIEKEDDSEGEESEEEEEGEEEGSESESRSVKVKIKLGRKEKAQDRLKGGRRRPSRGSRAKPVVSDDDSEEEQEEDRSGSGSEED
UniProt Q9Z0H3: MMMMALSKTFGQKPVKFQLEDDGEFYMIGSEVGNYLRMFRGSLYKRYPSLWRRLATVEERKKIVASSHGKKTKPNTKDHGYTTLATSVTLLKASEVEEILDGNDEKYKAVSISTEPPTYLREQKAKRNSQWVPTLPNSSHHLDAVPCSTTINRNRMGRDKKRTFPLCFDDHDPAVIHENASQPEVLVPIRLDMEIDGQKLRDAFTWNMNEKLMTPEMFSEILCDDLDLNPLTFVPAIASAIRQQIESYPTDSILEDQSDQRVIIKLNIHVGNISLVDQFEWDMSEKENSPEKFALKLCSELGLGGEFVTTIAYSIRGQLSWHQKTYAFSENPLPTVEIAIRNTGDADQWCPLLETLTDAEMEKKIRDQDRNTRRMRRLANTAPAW
UniProt P10085: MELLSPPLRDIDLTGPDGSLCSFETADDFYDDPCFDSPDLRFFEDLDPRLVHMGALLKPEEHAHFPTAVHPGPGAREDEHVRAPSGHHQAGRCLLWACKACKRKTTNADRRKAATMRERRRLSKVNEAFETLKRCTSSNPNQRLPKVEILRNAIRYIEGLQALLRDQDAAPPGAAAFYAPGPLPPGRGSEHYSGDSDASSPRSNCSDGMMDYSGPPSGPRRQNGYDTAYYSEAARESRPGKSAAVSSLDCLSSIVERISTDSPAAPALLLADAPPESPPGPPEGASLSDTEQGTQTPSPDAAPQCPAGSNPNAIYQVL
UniProt P70288: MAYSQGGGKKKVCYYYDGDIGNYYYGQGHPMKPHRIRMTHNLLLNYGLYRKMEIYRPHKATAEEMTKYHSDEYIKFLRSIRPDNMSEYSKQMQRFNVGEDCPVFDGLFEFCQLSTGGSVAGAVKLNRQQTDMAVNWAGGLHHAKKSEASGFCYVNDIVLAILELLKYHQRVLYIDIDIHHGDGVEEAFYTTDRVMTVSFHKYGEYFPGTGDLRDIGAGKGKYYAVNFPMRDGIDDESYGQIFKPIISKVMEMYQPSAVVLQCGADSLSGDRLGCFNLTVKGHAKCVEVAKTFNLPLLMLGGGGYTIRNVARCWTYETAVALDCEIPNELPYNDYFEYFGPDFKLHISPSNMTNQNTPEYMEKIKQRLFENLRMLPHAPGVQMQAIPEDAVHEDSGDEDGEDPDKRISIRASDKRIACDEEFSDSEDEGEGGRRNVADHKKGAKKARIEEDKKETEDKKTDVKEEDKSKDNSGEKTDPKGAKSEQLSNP
UniProt O09106: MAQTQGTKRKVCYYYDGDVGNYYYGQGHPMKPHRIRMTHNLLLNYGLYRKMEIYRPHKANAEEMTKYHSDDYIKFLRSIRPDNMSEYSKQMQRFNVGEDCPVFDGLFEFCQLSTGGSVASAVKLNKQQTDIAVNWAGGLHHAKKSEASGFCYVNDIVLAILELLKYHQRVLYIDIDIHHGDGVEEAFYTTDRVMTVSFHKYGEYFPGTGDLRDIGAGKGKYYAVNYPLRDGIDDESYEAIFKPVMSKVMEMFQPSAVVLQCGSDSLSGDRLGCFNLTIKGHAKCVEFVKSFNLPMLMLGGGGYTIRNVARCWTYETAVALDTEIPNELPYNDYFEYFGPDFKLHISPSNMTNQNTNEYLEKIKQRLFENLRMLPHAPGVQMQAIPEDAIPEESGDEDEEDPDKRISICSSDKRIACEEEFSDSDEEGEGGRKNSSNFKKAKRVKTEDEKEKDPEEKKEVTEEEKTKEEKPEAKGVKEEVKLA

No constants are given. Whether binding was seen depends on the method and setting. In cells and extracts the contact can be indirect. Some entries that bind do so weakly or less than the wild type.

The target in test [1] is Brahma-Related Gene 1 (mouse (endogenous in C2C12)) (UniProt Q3TKT4). The experiment in a line: co-IP; endogenous co-IP from nuclear extracts of C2C12 myoblasts, proliferating (GM) or after 24 h in differentiation medium (DM); micrococcal nuclease, sonication; 5 µg antibody (MyoD, BAF47 or BRG1) overnight at 4°C; washes 150 mM NaCl, 0.5% Triton X-100; western blot. In general terms: In western blotting, separated proteins are transferred to a membrane and probed.

The target in test [2] is BAF47/INI1/SNF5/SMARCB1 (mouse (endogenous in C2C12)) (UniProt Q9Z0H3). The test is described as above.
Test [3] has the same target. As to the kind of experiment: co-IP; endogenous co-IP from nuclear extracts of early differentiating C2C12 myoblasts (24 h DM); antibodies against BRG1 or BAF47; western blot.

For the substance MyoD (from UniProt P10085 1-318), the binding result in test [1] and in test [2] was “binds” in each case.

As to HDAC2 (from UniProt P70288 1-488), the binding result in test [1] and in test [2] was “binds” throughout.

For the substance “Brahma-Related Gene 1 (from UniProt Q3TKT4 1-1613)”, the binding entry in test [3] is “binds weakly”.

As to HDAC1 (from UniProt O09106 1-482), the binding entry in test [1] and in test [2] was “binds” throughout.
